Assay: Sensory evaluation (odor, color, taste) of Maillard model reactions in glycerol, buffer or dry conditions
Type: in vivo, human
Design: key: +: slight; ++: moderate; +++: very strong
Details: Example 5; 1 ml water + 9 ml Glycerin, 2.0 h, 120° C.

## N[C@@H](Cc1ccccc1)C(=O)O [0.1 mMol Phe]
  Intensity of Smell: +
